Assay results: patent US20240083846A1 (COUNCIL OF SCIENTIFIC & INDUSTRIAL RESEARCH, priority 2020, published 2024)

Assay: general procedure: solution-phase peptide synthesis; HBTU/DIPEA; EDC.HCl/HOBt/DIPEA
Details: for final HPLC purity: 220 nm
[1] = late stage modification step, from Boc-protected tetrapeptide

**Q.** Which step yield (coupling step) does the source give for “(2S,3S)-benzyl 2-((2S,5R)-1-((S)-2-((S)-2-(tert-butoxycarbonyl(methyl)amino)propanamido)-3-methylbutanoyl)-5-(5-methylfuran-2-yl)pyrrolidine-2-carboxamido)-3-methylpentanoate” here?
**A.** 80% yield

**Q.** Which “final HPLC purity” value (late stage modification step) does the source give for “(2S,3S)-benzyl 2-((2S,5R)-1-((S)-2-cyclohexyl-2((S)-2-(methylamino)propanamido)acetyl)-5-(5-methylfuran-2-yl)pyrrolidine-2-carboxamido)-3-methylpentanoate” here?
**A.** 98%

**Q.** And the step yield [1]?
**A.** 62% yield

**Q.** Which results are given for “(2S,3S)-benzyl 3-methyl-2((2S,5R)-1-((S)-3-methyl-2-((S)-2-(methylamino)propanamido)butanoyl)-5-(5-methylfuran-2-yl)pyrrolidine-2-carboxamido)pentanoate”?
**A.** final HPLC purity (late stage modification step): 99%; step yield [1]: 62%

**Q.** For “(2S,5R)-N-((2S,3S)-1-(benzhydrylamino)-3-methyl-1-oxopentan-2-yl)-1-((S)-3-methyl-2-((S)-2-(methylamino)propanamido)butanoyl)-5-(5-methylfuran-2-yl)pyrrolidine-2-carboxamide”, which “final HPLC purity” value (late stage modification step) is on record?
**A.** 99%

**Q.** What about the step yield (late stage modification step, from Boc-protected peptide) of the same substance?
**A.** 56% yield

**Q.** For “(2S,5R)-N-((2S,3S)-1-(benzhydrylamino)-3-methyl-l-oxopentan-2-yl)-1-((S)-3-methyl-2-((S)-2-(methylamino)propanamido)butanoyl)-5-phenylpyrrolidine-2-carboxamide”, which step yield (late stage modification step, from compound XIII) is on record?
**A.** yield 87%

**Q.** For Boc-Ala-Val-Fro-Ile-OBn, which step yield (coupling step) is on record?
**A.** 86% yield

**Q.** With Boc-N(Me)-Ala-Chg-Fro-Ile-OBn as the substance, how does the step yield (coupling step) read?
**A.** 80% yield

**Q.** Which step yield (coupling step) does the source give for “tert-butyl (S)-1-((S)-1-((2S,5R)-2-((2S ,3S)-1-(benzhydrylamino)-3 -methyl-l-oxopentan-2-ylcarbamo y1)-5-(5-methylfuran-2-yl)pyrrolidin-1-yl)-3-methyl-1-oxobutan-2-ylamino)-1-oxopropan-2-yl(methyl)carbamate” here?
**A.** 83% yield

**Q.** Which step yield (coupling step) does the source give for “tert-butyl (S)-1-((S)-1-((2S,5R)-2-((2S ,3S)-1-(benzhydrylamino)-3-methyl-1-oxopentan-2-ylcarbamoyl)-5-phenylpyrrolidin-1-yl)-3-methyl-l-oxobutan-2-ylamino)-1-oxopropan-2-yl(methyl)carbamate” here?
**A.** yield 84%

**Q.** For “tert-butyl (S)-1-((S)-2-((2S,5R)-2-((2S,3S)-1-(benzhydrylamino)-3 -methyl-1-oxopentan-2-ylcarbamoyl)-5-(5 -methylfuran-2-yl)pyrrolidin-1-yl)-1-cyclohexyl-2-oxoethylamino)-1-oxopropan-2-yl(methyl)carb amate”, which step yield (coupling step) is on record?
**A.** 85% yield
